Reference: the supplement of paper PMC6331611
± gives the standard deviation of the averaged measurements. Over roughly 1,600 compounds, “normalized intracellular growth (luminescence, IQM-normalized) in RAW264.7 macrophages” has its median near 1; the lowest 2% begin near 0.43. The list shows a part of the results.

System: Salmonella enterica serovar Typhimurium SL1344
Test: normalized intracellular growth (luminescence, IQM-normalized) in RAW264.7 macrophages (fraction of plate interquartile mean); higher = more bacterial growth (less inhibition)
Settings: 10 µM

SMILES	normalized intracellular growth (time point: T3 (3 h))	normalized intracellular growth (time point: Tfinal (~6 h))
C=C1c2c(Cl)ccc(O)c2C(=O)C2=C(O)[C@]3(O)C(=O)C(C(N)=O)=C(O)[C@@H](N(C)C)[C@@H]3[C@@H](O)[C@H]12.O=C(O)c1cc(S(=O)(=O)O)ccc1O	1.01 ± 0.065	0.0256 ± 0.0064
CC(C)(C)NCC(O)COc1cccc2c1CCC(=O)N2 (stereo not drawn)	0.996 ± 0.032	1.16 ± 0.1
OC[C@H]1O[C@H](O[C@]2(CCl)O[C@H](CCl)[C@@H](O)[C@@H]2O)[C@H](O)[C@@H](O)[C@H]1Cl	0.91 ± 0.095	0.0259 ± 0.0051
CN1CCC(=C2c3ccccc3CCc3cccnc32)CC1	1.03 ± 0.042	1.18 ± 0.2
Nc1nc2ccc(OC(F)(F)F)cc2s1	0.966 ± 0.051	0.937 ± 0.019
CC(=O)c1ccc2c(c1)N(CCCN(C)C)c1ccccc1S2	1.04 ± 0.051	1.22 ± 0.087
C=CCNC(N)=S	1 ± 0.029	1.08 ± 0.032
CN(C)CCOC(C)(c1ccccc1)c1ccccn1 (stereo not drawn)	1.02 ± 0.042	1.05 ± 0.027
CC(C)(C#N)c1cc(Cn2cncn2)cc(C(C)(C)C#N)c1	1.07 ± 0.041	1.32 ± 0.13
Oc1c(I)cc(Cl)c2cccnc12	1.025 ± 0.0075	1.03 ± 0.068
Nc1ccn([C@H]2CC[C@@H](CO)O2)c(=O)n1	0.998 ± 0.045	1.32 ± 0.036
COc1cc(/C=C/C(N)=O)cc(OC)c1OC	1.04 ± 0.084	1.03 ± 0.12
CN(C(=O)C(Cl)Cl)c1ccc(OC(=O)c2ccco2)cc1	1 ± 0.089	0.807 ± 0.32
CC(S)C(=O)NCC(=O)O (stereo not drawn)	1.02 ± 0.066	0.858 ± 0.12
COc1ccc(OC)c(C(O)CNC(=O)CN)c1 (stereo not drawn)	0.973 ± 0.055	1.02 ± 0.11
CN1CCN(CCCN2c3ccccc3Sc3ccc(C(F)(F)F)cc32)CC1	0.802 ± 0.025	0.991 ± 0.066
CNC[C@H](O)c1ccc(O)c(O)c1	1.09 ± 0.078	1.3 ± 0.11
OC(CNCC(O)C1CCc2cc(F)ccc2O1)C1CCc2cc(F)ccc2O1 (stereo not drawn)	0.979 ± 0.034	1.14 ± 0.13
CC[C@H](C)[C@H](N)C1=N[C@H](C(=O)N[C@@H](CC(C)C)C(=O)N[C@H](CCC(=O)O)C(=O)N[C@H](C(=O)N[C@H]2CCCCNC(=O)[C@H](CC(N)=O)NC(=O)[C@@H](CC(=O)O)NC(=O)[C@H](Cc3cnc[nH]3)NC(=O)[C@@H](Cc3ccccc3)NC(=O)[C@H]([C@@H](C)CC)NC(=O)[C@@H](CCCN)NC2=O)[C@@H](C)CC)CS1	1.05 ± 0.012	0.962 ± 0.077
CC(=O)NS(=O)(=O)c1ccc(NC(=O)c2ccccc2C(=O)O)cc1	0.935 ± 0.049	0.615 ± 0.14
Cc1c(N(C)C)c(=O)n(-c2ccccc2)n1C	0.974 ± 0.09	1.12 ± 0.09
Oc1c(Cl)cc(Cl)c(Cl)c1Cc1c(O)c(Cl)cc(Cl)c1Cl	1.05 ± 0.025	0.983 ± 0.022
COc1ccc(/C=C/C(=O)Nc2ccccc2C(=O)O)cc1OC	1.26 ± 0.13	1.15 ± 0.14
CCOC(=O)C1=C(COCCN)NC(C)=C(C(=O)OC)C1c1ccccc1Cl (stereo not drawn)	0.736 ± 0.18	0.788 ± 0.062
CN1[C@@H]2CC[C@H]1C[C@@H](OC(=O)c1c[nH]c3ccccc13)C2	1.07 ± 0.015	1.08 ± 0.097
Cc1cccc(C)c1OCC(C)N (stereo not drawn)	1.064 ± 0.0024	1.06 ± 0.14
COc1ccccc1OCC(O)CO (stereo not drawn)	0.949 ± 0.044	1.09 ± 0.048

SMILES	normalized intracellular growth (time point: T3 (3 h))	normalized intracellular growth (time point: Tfinal (~6 h))
NC[C@@H]1O[C@H](O[C@H]2[C@@H](O)[C@H](O[C@@H]3[C@@H](O)[C@H](N)C[C@H](N)[C@H]3O[C@H]3O[C@H](CO)[C@@H](O)[C@H](O)[C@H]3N)O[C@@H]2CO)[C@H](N)[C@@H](O)[C@@H]1O	0.942 ± 0.059	0.955 ± 0.04
CC[C@]1(O)C[C@H]2CN(CCc3c([nH]c4ccccc34)[C@@](C(=O)OC)(c3cc4c(cc3OC)N(C=O)[C@H]3[C@@](O)(C(=O)OC)[C@H](OC(C)=O)[C@]5(CC)C=CCN6CC[C@]43[C@@H]65)C2)C1	1.01 ± 0.036	0.689 ± 0.09
CC(=O)[C@H]1CC[C@H]2[C@@H]3C=CC4=CC(=O)CC[C@@]4(C)[C@@H]3CC[C@]12C	1.03 ± 0.038	0.988 ± 0.17
Cc1cc(=O)[nH]c(=S)[nH]1	1.1 ± 0.014	0.99 ± 0.06
C[C@H]1O[C@@H](O[C@H]2[C@@H](O)C[C@H](O[C@H]3[C@@H](O)C[C@H](O[C@H]4CC[C@@]5(C)[C@H](CC[C@@H]6[C@@H]5C[C@@H](O)[C@]5(C)[C@@H](C7=CC(=O)OC7)CC[C@]65O)C4)O[C@@H]3C)O[C@@H]2C)C[C@H](O)[C@@H]1O	1.06 ± 0.043	0.991 ± 0.052
Cc1c(OCC(F)(F)F)ccnc1C[S@@+]([O-])c1nc2ccccc2[nH]1	0.98 ± 0.076	1.18 ± 0.11
CC(C(=O)O)c1ccc(-c2ccccc2)c(F)c1 (stereo not drawn)	0.84 ± 0.071	0.955 ± 0.12
COc1cc2c(N3CCN(C(=O)Nc4ccc(OC(C)C)cc4)CC3)ncnc2cc1OCCCN1CCCCC1	1.01 ± 0.018	0.875 ± 0.012
O=C(OCC(O)CO)c1ccccc1Nc1ccnc2cc(Cl)ccc12 (stereo not drawn)	1.05 ± 0.057	0.984 ± 0.1
Nc1nc2[nH]cnc2c(=S)[nH]1	0.8645 ± 0.0065	0.765 ± 0.04
CC(=O)C1C(=O)C=C(C)OC1=O (stereo not drawn)	1 ± 0.013	1.12 ± 0.014
CN(C)C(=O)C(CCN1CCC(O)(c2ccc(Cl)cc2)CC1)(c1ccccc1)c1ccccc1	0.981 ± 0.0038	1.01 ± 0.016
CO/N=C(\C(=O)N[C@@H]1C(=O)N2C(C(=O)O)=C(CSc3nnnn3C)CS[C@H]12)c1csc(N)n1	0.987 ± 0.052	0.935 ± 0.032
CC(C(=O)O)c1ccc2c(c1)[nH]c1ccc(Cl)cc12 (stereo not drawn)	1.08 ± 0.042	0.948 ± 0.015
O=C1c2c(O)cccc2C([C@@H]2O[C@H](CO)[C@@H](O)[C@H](O)[C@H]2O)c2cc(CO)cc(O)c21 (stereo partly drawn)	0.956 ± 0.049	1.02 ± 0.052
CN1C(=O)CC[C@H]1c1cccnc1	1.02 ± 0.047	0.917 ± 0.095
CC[C@@H]1C(=O)OC[C@@H]1Cc1cncn1C	0.748 ± 0.12	0.91 ± 0.11
O=C(OOC(=O)c1ccccc1)c1ccccc1	1 ± 0.017	1.05 ± 0.037
N[C@@H](Cc1c[nH]c2ccccc12)C(=O)O	0.9872 ± 0.0059	0.97 ± 0.035
CCC1(C)OC(=O)N(C)C1=O (stereo not drawn)	1.03 ± 0.098	0.887 ± 0.17
CC(O)Cn1cnc2c1c(=O)n(C)c(=O)n2C (stereo not drawn)	1.02 ± 0.033	1.14 ± 0.027
NS(=O)(=O)c1cc2c(cc1C(F)(F)F)NCNS2(=O)=O	1.04 ± 0.026	0.997 ± 0.083
NC(=O)CCCCC1CCSS1 (stereo not drawn)	0.996 ± 0.093	0.817 ± 0.12
C=C(C)[C@H]1CC=C(C)CC1	0.96 ± 0.013	1.1 ± 0.098
CS(=O)(=O)OCCCCOS(C)(=O)=O	0.974 ± 0.018	0.996 ± 0.033
Cc1c(NC(=O)c2cccnc2)c(=O)n(-c2ccccc2)n1C	0.955 ± 0.03	1.02 ± 0.044
COc1cccc2c1C(=O)c1c(O)c3c(c(O)c1C2=O)C[C@@](O)(C(C)=O)C[C@@H]3O[C@H]1C[C@H](N)[C@H](O)[C@H](C)O1	0.982 ± 0.015	0.823 ± 0.053

Some of these compounds in order of molar mass, low to high:
SMILES	normalized intracellular growth (time point: T3 (3 h))	normalized intracellular growth (time point: Tfinal (~6 h))
CC(O)Cn1cnc2c1c(=O)n(C)c(=O)n2C (stereo not drawn)	1.02 ± 0.033	1.14 ± 0.027
CC(=O)NS(=O)(=O)c1ccc(NC(=O)c2ccccc2C(=O)O)cc1	0.935 ± 0.049	0.615 ± 0.14
CN(C)C(=O)C(CCN1CCC(O)(c2ccc(Cl)cc2)CC1)(c1ccccc1)c1ccccc1	0.981 ± 0.0038	1.01 ± 0.016
